Earlier results in patent US8987322B2, “Pharmaceutical formulations for carrier-mediated transport statins and uses thereof” (Circ Pharma Research and Development Limited, priority 2003, dated 2015).

Key:
[1] = like that found in the stomach

What does the source list for `CC(C)c1c(C(=O)Nc2ccccc2)c(-c2ccccc2)c(-c2ccc(F)cc2)n1CC[C@@H](O)C[C@@H](O)CC(=O)O` [atorvastatin]?
time to steady-state plasma levels (in vivo): 32 to 72 h; delay of tmax when taken with food (with food): 10 h; reduction of Cmax when taken with food (with food): 50%; stability in an acidic environment [1]: stable in acidic environments
